Results deposited as PubChem BioAssay AID743121 (NCATS, 2013).

Purpose: 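Partners whose loss is lethal together with topoisomerase I blockade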 (primary screen)
Cells: MDA-MB-231 cells, a human breast cancer line
Reagent: single siRNA against human genes, 20 nM siRNA (0.8 pmol per well)
Timing: 120 h (drug added 48 h after transfection, read 72 h later)
Challenge: camptothecin 20 nM (about EC30) for 72 h; vehicle 0.1% DMSO in parallel plates
Measured: 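CellTiter-Glo ATP signal, scaled to control siRNA as percent viability; sensitisation given as log2 of untreated divided by camptothecin-treated viability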
Scale: log2 vehicle/camptothecin viability: higher = stronger sensitisation to camptothecin
Hit rule: 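Each gene scored by redundant siRNA activity (RSA) over its individual siRNA ratios; a gene is called active at p < 0.001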
In all, the deposit lists about 26,000 reagents; below is a random part of them. Of all reagents, 167 (0.63%) were called active. 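Calls are per gene from RSA p-values that are not deposited; an individual active-marked siRNA can sensitise only weakly.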 Reagents against one gene are numbered here. Not all columns of the deposit are shown.

log2 vehicle/camptothecin viability, by gene symbol and reagent
MMAA (GeneID 166785): #1 -0.0947 inactive; #2 -0.12 inactive; #3 -0.468 inactive; #4 -0.529 inactive
CFAP263 (GeneID 29070): #1 0.389 inactive; #2 0.472 inactive; #3 -0.226 inactive
PKMYT1 (GeneID 9088): #1 0.337 inactive; #2 -0.0781 inactive; #3 1.27 inactive; #4 -0.68 inactive
ILF2 (GeneID 3608): #1 0.26 inactive; #2 -0.162 inactive; #3 -0.67 inactive; #4 -0.165 inactive
EGLN2 (GeneID 112398): #1 -0.302 inactive; #2 -0.354 inactive; #3 -0.294 inactive
ECEL1 (GeneID 9427): #1 0.316 inactive; #2 0.151 inactive; #3 -0.205 inactive; #4 -0.146 inactive
ETV7 (GeneID 51513): #1 -0.0634 inactive; #2 -0.188 inactive; #3 -0.0982 inactive; #4 -0.184 inactive
CDC50A (GeneID 55754): #1 -0.106 inactive; #2 -0.178 inactive; #3 0.147 inactive; #4 0.276 inactive
